Source: PubChem BioAssay AID1259405 (NCATS, 2018)

Aim: 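Mouse-designed siRNAs used to find CHO productivity engineering targets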 (primary screen)
Cell system: Chinese hamster CHO-K1 ovary cells with stable secreted eGFP expression
Knock-down reagent: single siRNA against mouse genes, 0.8 pmol siRNA per well (2 µl of 400 nM stock)
Duration: 3 days
Measured: 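Per-well intracellular GFP measured by laser scanning cytometry, plus viability from ATP luminescence, each relative to plate median of non-targeting control wells, in %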
Reading the numbers: GFP, % of control: higher = more GFP per well, higher productivity; viability (ATP), % of control: higher = more viable cells (more ATP)
Active means: 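Called active when intracellular GFP, relative to negative control, is at or above 120%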
Shown is one part, drawn at random, of about 50,000 reagents tested. About 4,000 of them (8%) were called active. 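Mouse siRNA library applied to hamster cells; one well for each siRNA.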 Reagents against one gene are numbered here.

no.	target gene	reagent	GFP, % of control	viability (ATP), % of control	Call
1	Slain2	1	53.5	73.6	inactive
2	Slain2	2	48.6	58.8	inactive
3	Slain2	3	102	107	inactive
4	A330070K13Rik	1	46.2	34.1	inactive
5	A330070K13Rik	2	36.7	30	inactive
6	A330070K13Rik	3	70.8	85.5	inactive
7	Klrc2	1	94	83.8	inactive
8	Klrc2	2	92.5	122	inactive
9	Supt5	1	77.7	69.2	inactive
10	Supt5	2	87.7	94.2	inactive
11	Plvap	1	21.1	20.5	inactive
12	Plvap	2	69.1	29.5	inactive
13	Plvap	3	73.5	127	inactive
14	Rpl22l1	1	82	63.1	inactive
15	Rpl22l1	2	82.4	75.5	inactive
16	Rpl22l1	3	115	59.4	inactive
17	Pth2r	1	46.5	60.5	inactive
18	Pth2r	2	79.4	59.6	inactive
19	Pth2r	3	60.2	71.7	inactive
20	Ttc39c	1	64.5	52.7	inactive
21	Ttc39c	2	83.1	50.7	inactive
22	Ttc39c	3	89.9	63.3	inactive
23	H4c8	1	49.4	76.3	inactive
24	H4c8	2	77.4	83.8	inactive
25	H4c8	3	41.7	56.7	inactive
26	Aff3	1	47.3	59.8	inactive
27	Aff3	2	84.3	85.2	inactive
28	Aff3	3	65	90.5	inactive
29	Faap100	1	99.4	93.8	inactive
30	Faap100	2	169	87	active
31	Faap100	3	64.7	69.6	inactive
32	9230112E08Rik	1	91.7	79.8	inactive
33	9230112E08Rik	2	69.3	56.4	inactive
34	9230112E08Rik	3	118	100	inactive
35	Col6a2	1	84	117	inactive
36	Col6a2	2	84.5	91.8	inactive
37	Utp18	1	48.1	46.6	inactive
38	Utp18	2	97.4	88.7	inactive
39	Utp18	3	84.4	86.8	inactive
40	Mab21l1	1	47.8	81.8	inactive
41	Mab21l1	2	96.1	74.4	inactive
42	Mab21l1	3	61.4	66.8	inactive
43	Rasgrf2	1	131	111	active
44	Rasgrf2	2	68	42.2	inactive
45	Rasgrf2	3	91.4	77.4	inactive
46	Zpr1	1	86.8	80.9	inactive
47	Zpr1	2	88.2	68.1	inactive
48	Zpr1	3	109	105	inactive
49	Lad1	1	63.8	79	inactive
50	Lad1	2	90.6	76.9	inactive
51	Lad1	3	106	41.1	inactive
52	Or1q1	1	102	68.5	inactive
53	Or1q1	2	88.8	81.2	inactive
54	Or1q1	3	57.3	74.9	inactive
55	Mrps24	1	79.5	88.1	inactive
56	Mrps24	2	116	27.4	inactive
57	Mrps24	3	86.5	82.9	inactive
58	Mapk8ip1	1	71.8	89.6	inactive
59	Mapk8ip1	2	56.3	60.4	inactive
60	Nxph3	1	66.8	84	inactive
61	Nxph3	2	118	103	inactive
62	Nxph3	3	77.2	72.9	inactive
63	Traf2	1	57.2	54.2	inactive
64	Traf2	2	55.5	71.9	inactive
65	Traf2	3	67.9	69.6	inactive
66	Herc4	1	55.5	89.2	inactive
67	Herc4	2	88.3	95.2	inactive
68	Herc4	3	31.2	41.5	inactive
69	Spopl	1	141	104	active
70	Spopl	2	106	96.6	inactive
71	Spopl	3	81.1	87.4	inactive
72	Cask	1	67.2	49.7	inactive
73	Elovl2	1	92.6	97.4	inactive
74	Elovl2	2	68.7	72.6	inactive
75	Elovl2	3	108	81.2	inactive
76	Stambp	1	105	115	inactive
77	Stambp	2	97.3	96.9	inactive
78	Mrpl37	1	33.6	35.9	inactive
79	Mrpl37	2	52.2	74.9	inactive
80	Mrpl37	3	86.2	66.3	inactive
81	Nlrc5	1	63.8	72.6	inactive
82	Nlrc5	2	79.4	95.2	inactive
83	Nlrc5	3	0	369	inactive
84	Papolb	1	110	120	inactive
85	Papolb	2	84.4	76.7	inactive
86	Neurl4	1	77.5	66.9	inactive
87	Neurl4	2	47.1	59.4	inactive
88	Neurl4	3	48	51.5	inactive
89	Mc2r	1	88.9	78	inactive
90	Mc2r	2	57.2	74.5	inactive
91	Mc2r	3	64.2	30.4	inactive
92	Angel2	1	102	126	inactive
93	Angel2	2	35.7	42.7	inactive
94	Epha8	1	64.7	74.3	inactive
95	Epha8	2	78.6	89.9	inactive
96	Epha8	3	62.1	48.3	inactive
97	Nsmaf	1	51	51.8	inactive
98	Nsmaf	2	105	81.5	inactive
99	Nsmaf	3	76.7	74.7	inactive
100	Actrt1	1	93	64.8	inactive
101	Actrt1	2	99.1	93.5	inactive
102	Ranbp3	1	71.9	83.4	inactive
103	Ranbp3	2	101	76.2	inactive
104	Ranbp3	3	41.2	51	inactive
105	Zdhhc13	1	90.5	71.9	inactive
106	Zdhhc13	2	46	37.5	inactive
107	Zdhhc13	3	62	91.8	inactive

An excerpt of the results above:
no.	target gene	reagent	GFP, % of control	viability (ATP), % of control	Call
9	Supt5	1	77.7	69.2	inactive
10	Supt5	2	87.7	94.2	inactive
11	Plvap	1	21.1	20.5	inactive
12	Plvap	2	69.1	29.5	inactive
13	Plvap	3	73.5	127	inactive
14	Rpl22l1	1	82	63.1	inactive
15	Rpl22l1	2	82.4	75.5	inactive
16	Rpl22l1	3	115	59.4	inactive
17	Pth2r	1	46.5	60.5	inactive
